Assay [1] deals with T1, biotinylated purified human beta defensin-3 (HBD3) protein (human) (UniProt P81534).
T1 sequence (chain, biotin (TFPA-PEG3-Biotin; sites not stated)): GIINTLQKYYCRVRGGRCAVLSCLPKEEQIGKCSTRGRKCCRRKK
In words: pull-down; chilled A549 cells expressing FLAG-LRP5 incubated with biotinylated HBD3 for 4 h at 4°C; lysed in PBS with 1% Triton X-100; lysate precipitated with NeutrAvidin-agarose 16 h at 4°C; western blot with anti-FLAG; only the target purified. (A western blot detects proteins with antibodies after separation by electrophoresis.)

Assay [2] deals with T1, biotinylated purified human beta defensin-3 (HBD3) protein (human). In words: pull-down; cell-free: biotinylated HBD3 bound to avidin-agarose (16 h at 4°C), washed, incubated with purified truncated LRP5 (16 h at 4°C); western blot with LRP5 antibody; non-biotinylated HBD3 as control; both purified.

No constants are given. Whether binding was seen depends on the method and setting. For some assays here: Binding seen in cells or lysates may run through a third protein. Some binding calls cover weakened binding; strength is not graded here. For some assays here: Sequences can lack the tags named with a protein.

As to “FLAG-tagged LDL receptor-related protein-5 (LRP5) (from UniProt O75197 32-1615)”, the binding entry in assay [1] is listed as “binds”.

B1: purified truncated recombinant LRP5 protein (aa769-aa1016) with Fc tag (Fc fusion, UniProt O75197 769-1016)
chain: DPTKGYIYWTEWGGKPRIVRAFMDGTNCMTLVDKVGRANDLTIDYADQRLYWTDLDTNMIESSNMLGQERVVIADDLPHPFGLTQYSDYIYWTDWNLHSIERADKTSGRNRTLIQGHLDFVMDILVFHSSRQDGLNDCMHNNGQCGQLCLAIPGGHRCGCASHYTLDPSSRNCSPPTTFLLFSQKSAISRMIPDDQHSPDLILPLHGLRNVKAIDYDPLDKFIYWVDGRQNIKRAKDDGTQPFVLTSL
B1: in assay [2], the binding entry is given as “binds”.

The values are drawn from PMC10324619.
